# Assay results: PMC10199097, “Molecular mechanism of hyperactivation conferred by a truncation of TRPA1” (Nature Communications, 2023)
# Amino acid sequences for entries named in this document (tags omitted). A change or cut given only in a name is not applied to a line headed by its entry. Residues count along the entry.
# UniProt O75762: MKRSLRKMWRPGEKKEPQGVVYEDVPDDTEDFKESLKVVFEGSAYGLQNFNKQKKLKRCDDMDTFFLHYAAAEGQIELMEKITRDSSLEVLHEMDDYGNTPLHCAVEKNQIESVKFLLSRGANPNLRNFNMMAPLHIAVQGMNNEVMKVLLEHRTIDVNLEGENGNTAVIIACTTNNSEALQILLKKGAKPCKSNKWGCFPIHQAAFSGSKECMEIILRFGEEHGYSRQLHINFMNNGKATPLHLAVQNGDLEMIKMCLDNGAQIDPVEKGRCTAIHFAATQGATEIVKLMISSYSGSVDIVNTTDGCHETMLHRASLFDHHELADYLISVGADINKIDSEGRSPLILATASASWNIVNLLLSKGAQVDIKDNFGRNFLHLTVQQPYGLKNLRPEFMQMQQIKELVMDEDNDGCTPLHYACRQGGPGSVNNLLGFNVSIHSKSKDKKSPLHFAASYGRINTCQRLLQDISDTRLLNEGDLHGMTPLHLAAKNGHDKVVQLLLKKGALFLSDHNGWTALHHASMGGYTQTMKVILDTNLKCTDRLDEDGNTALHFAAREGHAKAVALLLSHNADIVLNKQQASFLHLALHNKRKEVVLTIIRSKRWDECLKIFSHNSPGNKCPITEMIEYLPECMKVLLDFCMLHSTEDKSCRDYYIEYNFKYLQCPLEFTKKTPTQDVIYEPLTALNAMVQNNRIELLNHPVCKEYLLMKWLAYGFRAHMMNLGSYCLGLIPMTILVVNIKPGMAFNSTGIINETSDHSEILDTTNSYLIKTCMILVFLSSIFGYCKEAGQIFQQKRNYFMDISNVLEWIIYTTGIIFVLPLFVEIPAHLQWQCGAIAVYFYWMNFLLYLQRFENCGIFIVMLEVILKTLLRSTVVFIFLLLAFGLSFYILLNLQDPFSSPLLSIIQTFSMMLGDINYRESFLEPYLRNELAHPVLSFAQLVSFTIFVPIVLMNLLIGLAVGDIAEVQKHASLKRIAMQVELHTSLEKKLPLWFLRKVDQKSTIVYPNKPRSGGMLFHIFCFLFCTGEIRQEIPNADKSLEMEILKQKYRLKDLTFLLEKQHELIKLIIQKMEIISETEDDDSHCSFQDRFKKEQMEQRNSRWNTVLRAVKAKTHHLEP
# Δ1011–1119 human TRPA1 C-terminal truncation: residues 1-1010 of O75762
# Δ969–1119 human TRPA1 C-terminal truncation: residues 1-968 of O75762
# Δ934–1119 human TRPA1 C-terminal truncation: residues 1-933 of O75762
# No constants are given. Whether binding was seen depends on the method and setting. In cells and extracts the contact can be indirect. Some entries that bind do so weakly or less than the wild type.
# Columns and labels:
# [1] = target: wild type (WT) human TRPA1 (Transient Receptor Potential Ankyrin subtype 1) (human) (UniProt O75762); assay: pull-down + SEC; Ni2+-FLAG tandem purification from cells co-expressing 8xHis-mCerulean-tagged WT and FLAG-mVenus-tagged R919* TRPA1; dual color FSEC
# [2] = target: R919* human TRPA1 mutant (CRAMPT syndrome truncation) (human) (UniProt O75762); assay: pull-down; amylose pulldown of MBP-tagged bait from lysates of co-transfected cells; 3×FLAG-tagged prey detected by HRP-conjugated anti-FLAG immunoblot
# [3] = target: wild type (WT) human TRPA1 (Transient Receptor Potential Ankyrin subtype 1) (human) (UniProt O75762); assay: as above
# [4] = target: wild type (WT) human TRPA1 (Transient Receptor Potential Ankyrin subtype 1) (human) (UniProt O75762); assay: pull-down + native gel or EMSA; Strep-FLAG tandem affinity purification from lysates of HEK293T cells expressing FLAG-MBP- or Strep-MBP-tagged WT or R919* TRPA1; Blue Native PAGE
# [5] = target: R919* human TRPA1 mutant (CRAMPT syndrome truncation) (human) (UniProt O75762); assay: co-IP + SEC; GFP- and 3×FLAG-tagged subunits co-expressed in HEK293T cells; anti-FLAG immunoprecipitation, eluates analysed by fluorescence size exclusion chromatography (FSEC) of the GFP-tagged subunit; anti-FLAG blot of peak fractions
# [6] = target: Δ1011–1119 human TRPA1 C-terminal truncation (human) (UniProt O75762); assay: co-IP; C-terminal truncation co-expressed with WT TRPA1; immunoprecipitation of the truncation (Supplementary Fig. 10a)
# [7] = target: Δ934–1119 human TRPA1 C-terminal truncation (human) (UniProt O75762); assay: as above
# [8] = target: Δ969–1119 human TRPA1 C-terminal truncation (human) (UniProt O75762); assay: as above
binding [1],binding [2],binding [3],binding [4],binding [5],binding [6],binding [7],binding [8],Substance
binds,binds,binds,binds,binds,,,,R919* human TRPA1 mutant (CRAMPT syndrome truncation) (from UniProt O75762 1-918) (domain or fragment)
,binds,binds,binds,binds,binds,binds,binds,wild type (WT) human TRPA1 (Transient Receptor Potential Ankyrin subtype 1) (from UniProt O75762 1-1119)
